The results in this text go back to PMC5996148.

The other results are listed elsewhere or left out. For some of these results: The source does not settle which construct or isoform was used.

Some test systems named below: POLE3 (human); POLR2I (human); PPAP2B (human); PPM1A (human); PPP1R16B (human); PPP1R2 (human); PPP2R2C (human); PPP3R2 (human); PPT2 (human).
Common to all, as to test: protein microarray (ProtoArray v5.0), streptavidin-Alexa Fluor 647
What all share (conditions): 3'-biotin; 20 mM Tris (pH 7.5), 5 mM MgCl2, 100 mM KCl, 0.1% Tween-20, A/T-rich and random oligonucleotide blockers; temperature not stated; high values mean tight binding

For another test, the target named is T1, PPT1 (UniProt P50897).
T1 sequence: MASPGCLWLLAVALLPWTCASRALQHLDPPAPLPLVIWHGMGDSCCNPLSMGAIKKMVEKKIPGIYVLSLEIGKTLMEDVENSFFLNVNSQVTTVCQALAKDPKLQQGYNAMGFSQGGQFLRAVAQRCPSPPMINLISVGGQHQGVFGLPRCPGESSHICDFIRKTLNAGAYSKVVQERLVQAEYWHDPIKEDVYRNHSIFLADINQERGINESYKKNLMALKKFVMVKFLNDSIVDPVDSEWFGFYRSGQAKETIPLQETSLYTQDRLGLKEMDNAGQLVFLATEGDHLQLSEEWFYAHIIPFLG

As for “GGGGACAGGGGTATGGGGAGGGG [G4-3 biotinylated (CtG)]”, the binding signal is -0.335 z-score with POLE3 (human); -0.335 z-score in the test on POLR2I (human); -0.306 z-score with PPAP2B (human); -0.318 z-score with PPM1A (human); -0.28 z-score in the test with PPP1R16B (human); -0.328 z-score with PPP1R2 (human). In addition, the binding signal in the test with PPP2R2C (human) is -0.321 z-score; with PPP3R2 (human), -0.33 z-score; in the test with PPT1, -0.326 z-score; in the test on PPT2 (human), -0.332 z-score.
